Source: PubChem BioAssay AID1487 (National Center for Advancing Translational Sciences (NCATS), 2009)
Several values for one entry are separate records, joined by “and”; a condition that tells them apart may be missing. Equal entries are not always repeated. This is one part of the list. Shown are side measurements of this screen, not its main read-out; they come without a call. Compounds called inactive in the main read-out are mostly missing here. Potencies come from curve fits of mixed quality, noted in brackets.

Assay: qHTS Assay for Modulators of Lamin A Splicing
Conditions: HeLa LMNA splicing GFP/RFP minigene ratio, 48 h
Summary of the method: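 Read-out is the ratio of GFP to DsRed2 object intensity, acquired by 488 nm laser-scanning cytometry on HeLa lamin A-EGFP minigene reporter cells. Compound incubation 48 hrs at 37 °C in Opti-MEM with 2% FBS; DMSO 0.5% final.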

[1] = measured here: RFP viability control channel
[2] = measured here: GFP splicing reporter channel

SMILES | AC50 [1] | AC50 [2]
COc1ccc(NC(=O)CSc2ccccc2)cn1 | 35.5 µM [rising, single point] | 
CCOC(=O)c1ccccc1NC(=O)Cc1c(C(=O)O)c(C)cn1C | 0.2 µM [falling, full curve, poor fit] | 
COc1ccc(-c2cc(=O)c3ccccc3o2)cc1 | 11.2 µM [rising, single point] | 12.6 µM [rising, single point]
Cc1ccccc1C1C2=C(Nc3[nH]n(-c4ccccc4)c(=O)c31)c1ccccc1C2=O (stereo not given) | 14.1 µM [rising, partial curve] | 
O=C(NCC(c1cccnc1)N1CCN(c2ccccc2)CC1)c1ccc2c(c1)OCO2 (stereo not given) | 14.1 µM [rising, single point] | 
Cc1cc(C)nc(N/N=C/C2=C(N3CCOCC3)C(=C\c3ccc(Cl)cc3)/CC2)n1 | 22.4 µM [rising, partial curve, poor fit] | 
c1c2c(cc3sc(N4CCCCC4)nc13)OCCO2 |  | 35.5 µM [rising, single point]
Cc1ccccc1-c1nc(CN2CCCC2c2ccc(F)cc2)c(C)o1 (stereo not given) | 0.178 µM [falling, full curve, poor fit] | 22.4 µM [falling, partial curve]
COc1ccc(OC)c(N2Cc3ccccc3C2)c1 | 17.8 µM [rising, single point] | 
CC(C)N(C#N)c1nc(N2CCOCC2)nc(N2CCOCC2)n1 | 35.5 µM [rising, single point] | 
Cc1cccc(CS(=O)(=O)CC2Nc3ccc(C(=O)NCc4ccccc4)cc3NC2=O)c1 (stereo not given) | 28.2 µM [falling, partial curve] | 14.1 µM [falling, partial curve, poor fit]
CCCCCn1c(CN2CCN(c3cc(Cl)ccc3C)CC2)nc2c1c(=O)[nH]c(=O)n2C | 25.1 µM [falling, single point] | 35.5 µM [falling, single point]
O=C(c1ccco1)N1CCN(c2nc(C3CC3)nc3c2nnn3Cc2ccccc2Cl)CC1 | 35.5 µM [rising, single point] | 31.6 µM [rising, single point]
O=[N+]([O-])c1cc(S(=O)(=O)Nc2cccc(Cl)c2)ccc1N=Nc1c(O)[nH]c2ccccc12 | 35.5 µM [falling, single point] | 25.1 µM [falling, single point]
CCN(CC)C(=O)c1cccc(-c2ccc(OC)cc2)c1 | 11.2 µM [rising, partial curve] | 11.2 µM [rising, partial curve]
O=C(NCc1cc(C(F)(F)F)cc(C(F)(F)F)c1)C1CC(c2c(Cl)cccc2Cl)=NO1 (stereo not given) | 35.5 µM [rising, single point] | 35.5 µM [rising, single point]
COc1ccc(N2CCN(C(=O)CSc3nc4c(c(=O)n(C)c(=O)n4C)n3C(C)C)CC2)cc1 | 8.91 µM [rising, partial curve] | 

SMILES | AC50 [1] | AC50 [2]
COc1ccc(N2CCCn3c2nc2c3c(=O)n(CCCc3ccccc3)c(=O)n2C)cc1 | 11.2 µM [rising, partial curve, poor fit] | 7.94 µM [rising, partial curve, poor fit]
CCn1c(=O)c2[nH]c(-c3ccccc3)nc2n(CC)c1=O | 0.316 µM [rising, full curve, poor fit] | 6.31 µM [falling, partial curve, poor fit]
Cc1ccc(-n2nnnc2SC(C(=O)c2c[nH]c3ccccc23)c2ccccc2)cc1 (stereo not given) | 35.5 µM [falling, single point] | 35.5 µM [falling, single point]
COc1ccc(S(=O)(=O)NCC(c2cccs2)S(=O)(=O)c2ccc(C)cc2)cc1F (stereo not given) | 0.794 µM [falling, single point] | 0.708 µM [falling, full curve, poor fit]
N#Cc1c(-c2ccccc2)no[n+]1[O-] | 12.6 µM [falling, partial curve] | 12.6 µM [falling, partial curve]
COc1ccc(-c2csc(NC(=O)CC(C)C)n2)cc1 | 35.5 µM [rising, single point] | 
CCCNc1nc(-c2ccccc2)c(C(=O)OCC)cc1C#N | 5.62 µM [rising, single point] | 
Cc1nnc(N(C)C(=O)c2ccncc2)s1 | 0.0251 µM [falling, full curve, poor fit] | 
Cc1ccc(S(=O)(=O)N/N=C/c2cccc([N+](=O)[O-])c2)cc1 | 28.2 µM [rising, single point] | 
CCCNC[C@H](O)COc1ccccc1C(=O)CCc1ccccc1 | 0.251 µM [falling, single point] | 200 nM [falling, single point] and 2.82 µM [rising, single point]
CCN(CC)c1ccc(-c2nc3cnccn3c2NC2CCCC2)cc1 | 22.4 µM [falling, single point] | 25.1 µM [falling, single point]
NC1=NC(=Nc2cccc(Cl)c2)c2ccccc21 | 8.91 µM [rising, single point] | 
Cc1ccc(NC(=O)CCc2c(C)nn(-c3ccc(N4CCCCC4)nn3)c2C)cc1F | 0.112 µM [falling, full curve, poor fit] | 3.16 µM [falling, partial curve, poor fit]
Nc1nc(Cl)nc2c1ncn2[C@@H]1O[C@H](CO)[C@H](O)C1F (stereo not given in full) | 0.0794 µM [rising, full curve] | 
CCC(=O)Nc1sc(Cc2ccccc2)c(C)c1C(N)=O | 35.5 µM [falling, single point] | 35.5 µM [falling, single point]
COc1ccc(N=C2SC(CC(=O)Nc3ccc(F)cc3)C(=O)N2Cc2ccco2)cc1 (stereo not given) | 7.94 µM [rising, partial curve, poor fit] | 

Among those listed so far, these have a furan ring, fused or not.
SMILES | AC50 [1] | AC50 [2]
O=C(c1ccco1)N1CCN(c2nc(C3CC3)nc3c2nnn3Cc2ccccc2Cl)CC1 | 35.5 µM [rising, single point] | 31.6 µM [rising, single point]
COc1ccc(N=C2SC(CC(=O)Nc3ccc(F)cc3)C(=O)N2Cc2ccco2)cc1 (stereo not given) | 7.94 µM [rising, partial curve, poor fit] | 
